Results deposited as PubChem BioAssay AID720505 (Drosophila RNAi Screening Center, 2013).
The screen tested about 20,000 reagents; shown is a random part of those that have a named target and a result. Over the whole deposit, about 2,100 (10%) got an active call. 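Raw plate signals without normalisation; calls rest on control-based scores that were not deposited; replicate 2 separates called from uncalled poorly.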 Entries without a mark were called inactive. Names joined by + are all predicted targets of the reagent. The record does not give: the amount of reagent, the time to read-out.

Screen: 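Fly regulators or components of the CRAC channel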 (primary screen)
Cell system: Drosophila S2R+ cells
Reagents: long dsRNA against Drosophila genes
Conditions: thapsigargin (2 µM) in calcium-free buffer to empty internal stores, then 2 mM calcium added back
Measured: 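Stores emptied by 2 µM thapsigargin without calcium, then 2 mM calcium re-added; fluo-4 fluorescence followed by FLIPR in 384-well plates, per-well averaged endpoint, raw; two screen passes, some wells retested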
Reading the numbers: calcium signal and retest calcium signal: higher = more calcium entry after store depletion
Hit rule: 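Knock-downs counted as hits when calcium entry dropped relative to STIM1 positive and Rho1 negative controls present on each plate; roughly 1500 genes called, with reductions of differing size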
Calls: active = called as lowering calcium entry; inactive = not called

{"gene": "CG34214", "amplicon": "DRSC04490", "calcium signal, replicate 1": 195, "calcium signal, replicate 2": 79.8}
{"gene": "l(2)efl", "amplicon": "DRSC04698", "calcium signal, replicate 1": 145, "calcium signal, replicate 2": 78.5}
{"gene": "CG9263", "amplicon": "DRSC03176", "calcium signal, replicate 1": "54 (active)", "calcium signal, replicate 2": 99}
{"gene": "Vps53", "amplicon": "DRSC00595", "calcium signal, replicate 1": 146, "calcium signal, replicate 2": 294}
{"gene": "CG17292", "amplicon": "DRSC02594", "calcium signal, replicate 1": 87, "calcium signal, replicate 2": 202}
{"gene": "EndoU", "amplicon": "DRSC15472", "calcium signal, replicate 1": 113, "calcium signal, replicate 2": 168}
{"gene": "sip1", "amplicon": "DRSC03609", "calcium signal, replicate 1": 145, "calcium signal, replicate 2": 110}
{"gene": "sip1", "amplicon": "DRSC22648", "calcium signal, replicate 1": 108, "calcium signal, replicate 2": 173}
{"gene": "tna", "amplicon": "DRSC10937", "calcium signal, replicate 1": 61.7, "calcium signal, replicate 2": 71.4}
{"gene": "tna", "amplicon": "DRSC23236", "calcium signal, replicate 1": 98, "calcium signal, replicate 2": 135}
{"gene": "Kank", "amplicon": "DRSC05513", "calcium signal, replicate 1": 89.4, "calcium signal, replicate 2": 132}
{"gene": "Kank", "amplicon": "DRSC05933", "calcium signal, replicate 1": 150, "calcium signal, replicate 2": 124}
{"gene": "obe", "amplicon": "DRSC15736", "calcium signal, replicate 1": 108, "calcium signal, replicate 2": 152}
{"gene": "CG6276", "amplicon": "DRSC16007", "calcium signal, replicate 1": 95.9, "calcium signal, replicate 2": 144}
{"gene": "Rbcn-3B", "amplicon": "DRSC18574", "calcium signal, replicate 1": 108, "calcium signal, replicate 2": 155}
{"gene": "lncRNA:sphinx", "amplicon": "DRSC17199", "calcium signal, replicate 1": "71.4 (active)", "calcium signal, replicate 2": 96.7}
{"gene": "BEAF-32 + CG42254 (retired record)", "amplicon": "DRSC05503", "calcium signal, replicate 1": 68.4, "calcium signal, replicate 2": 122}

Not a retest: 4 of the entries above.
{"gene": "tna", "amplicon": "DRSC23236", "calcium signal, replicate 1": 98, "calcium signal, replicate 2": 135}
{"gene": "Kank", "amplicon": "DRSC05513", "calcium signal, replicate 1": 89.4, "calcium signal, replicate 2": 132}
{"gene": "Kank", "amplicon": "DRSC05933", "calcium signal, replicate 1": 150, "calcium signal, replicate 2": 124}
{"gene": "obe", "amplicon": "DRSC15736", "calcium signal, replicate 1": 108, "calcium signal, replicate 2": 152}

Further results follow:
{"gene": "Lcp1Psi", "amplicon": "DRSC05105", "calcium signal, replicate 1": 101, "calcium signal, replicate 2": 108}
{"gene": "HnRNP-K", "amplicon": "DRSC07585", "calcium signal, replicate 1": 102, "calcium signal, replicate 2": 93.2, "retest calcium signal, replicate 1": 107, "retest calcium signal, replicate 2": 128}
{"gene": "HnRNP-K", "amplicon": "DRSC22734", "calcium signal, replicate 1": 122, "calcium signal, replicate 2": 206}
{"gene": "brm", "amplicon": "DRSC11330", "calcium signal, replicate 1": "87.2 (active)", "calcium signal, replicate 2": 67.5}
{"gene": "Jarid2", "amplicon": "DRSC10372", "calcium signal, replicate 1": 113, "calcium signal, replicate 2": 130}
{"gene": "ND-19", "amplicon": "DRSC04404", "calcium signal, replicate 1": 139, "calcium signal, replicate 2": 279, "retest calcium signal, replicate 1": 101, "retest calcium signal, replicate 2": 116}
{"gene": "CG12299", "amplicon": "DRSC02158", "calcium signal, replicate 1": 81.9, "calcium signal, replicate 2": 94}
{"gene": "mbl", "amplicon": "DRSC05657", "calcium signal, replicate 1": 154, "calcium signal, replicate 2": 146, "retest calcium signal, replicate 1": 10664, "retest calcium signal, replicate 2": 112}
{"gene": "mbl", "amplicon": "DRSC06449", "calcium signal, replicate 1": 120, "calcium signal, replicate 2": 123}
{"gene": "mbl", "amplicon": "DRSC07651", "calcium signal, replicate 1": 228, "calcium signal, replicate 2": 185}
{"gene": "mbl", "amplicon": "DRSC23188", "calcium signal, replicate 1": 115, "calcium signal, replicate 2": 126}
